# Assay results from the supplement of paper PMC9135407.
# “And” between values parts separate entries of the source, which are not always exact repeats. Equal values may be shown once. Where a name gives a salt, the structure may show the parent alone. ± gives the standard deviation of the averaged measurements. Some of the results follow. Part of the spread comes from offsets between plates or batches.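 Primary human stellate myofibroblasts activated in culture; inactivation shown by regained lipid droplets. Readout: fraction of Hoechst-counted cells exceeding a per-plate Bodipy threshold, duplicate wells, each plate with DMSO negative and nortriptyline positive controls. Hits: control-normalized score beyond the plate's top-tenth-percentile nortriptyline wells, or among its three best wells. Final well concentrations unstated.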
# System: primary human hepatic stellate cells (donor 1)
# Assay: percent Bodipy-positive cells; higher = more lipid droplet accumulation
# Conditions: 48 h
# [1] = library stock concentration: 10 mM
# [2] = library stock concentration: 1 mM
# [3] = library stock concentration: 3.33 mM
# [4] = library stock concentration: 80 uM
# [5] = library stock concentration: 400 uM
# [6] = library stock concentration: 2 mM
# [7] = library stock concentration: 5.3 mM
structure (smiles),measurement,setting,value
O=C(NCCN1CCCCC1)c1ccc(I)cc1 [N-[2-(Piperidinylamino)ethyl]-4-iodobenzamide],percent Bodipy-positive cells,[1],32.1 ± 2.5%
CC1=C(/C=C/C(=C/C=C/C(C)=C/C(=O)O)c2ccc(C)cc2)C(C)(C)CCC1,percent Bodipy-positive cells,[1],8.51 ± 2.6%
CC1=C(/C=C/C(C)=C\C=C\C(C)=C\C(=O)O)C(C)(C)CCC1 [9-cis Retinoic acid],percent Bodipy-positive cells,[2],11.6 ± 8.6%
O=P(O)(O)OC1[C@H](O)[C@H](O)C(O)[C@H](O)[C@H]1O (stereo partly drawn) [D-myo-Inositol-1-phosphate (sodium salt)],percent Bodipy-positive cells,[2],12.5 ± 2%
CC[C@H](CO)Nc1nc(NCc2ccccc2O)c2ncn(C(C)C)c2n1 [Olomoucine II],percent Bodipy-positive cells,[3],66.1 ± 7.8%
"CCCCc1c(-c2ccc(O)cc2)[nH]c2nccnc12 [Aloisine A, RP107]",percent Bodipy-positive cells,[3],9.2 ± 2.2%
CCCCC[C@H](O)/C=C/[C@H]1[C@@H]2CO[C@@H](C2)[C@@H]1C/C=C\CCCC(=O)O,percent Bodipy-positive cells,[2],17.3 ± 3.4%
Cc1cc(-c2ccc(/N=N/c3ccc4c(S(=O)(=O)O)cc(S(=O)(=O)O)c(N)c4c3O)c(C)c2)ccc1/N=N/c1ccc2c(S(=O)(=O)O)cc(S(=O)(=O)O)c(N)c2c1O,percent Bodipy-positive cells,[1],15.1 ± 2.1%
Nc1nc(Nc2ccc(S(N)(=O)=O)cc2)nn1C(=S)Nc1c(F)cccc1F [Cdk1/2 Inhibitor III],percent Bodipy-positive cells,[3],92.3 ± 5.3%
C[C@]12CC[C@H](O)CC1=CCC1C2CC[C@]2(C)C(n3cnc4ccccc43)=CCC12 (stereo partly specified) [Galeterone],percent Bodipy-positive cells,[1],89.5 ± 1%
Cl.Cl.OCCN1CCN(CCCN2c3ccccc3C=Cc3ccccc32)CC1 [Opipramol dihydrochloride],percent Bodipy-positive cells,[1],91.3 ± 3.1%
N#C/C(=C(/N)Sc1ccccc1N)c1cccc(C(O)c2ccncc2)c1 (stereo unspecified) [MEK Inhibitor I],percent Bodipy-positive cells,[3],11.1 ± 1%
CCCN(CCc1ccccc1)C1CCc2c(O)cccc2C1 (stereo unspecified) [(?)-PPHT hydrochloride],percent Bodipy-positive cells,[1],91.8 ± 2.1%
Cc1cc(OCc2nnc(SC3CCCC3)n2-c2cccnc2)ccc1-c1ccc(S(C)(=O)=O)cc1,percent Bodipy-positive cells,[3],98.84 ± 0.75%
same,percent Bodipy-positive cells,[1],100%
CNC(=O)c1ccc(C)c(-n2c(C)cc(OCc3ccc(F)cc3F)c(Br)c2=O)c1,percent Bodipy-positive cells,[4],15.8 ± 1.8%
same,percent Bodipy-positive cells,[5],13.1 ± 0.76%
same,percent Bodipy-positive cells,[6],14.2 ± 0.69%
same,percent Bodipy-positive cells,[3],15 ± 2.1%
same,percent Bodipy-positive cells,[1],17.3% and 11.2%
C/C=C/C/C=C/CCC(=O)[C@H]1O[C@H]1C(N)=O [Cerulenin],percent Bodipy-positive cells,[2],8.14 ± 1.9%
same,percent Bodipy-positive cells,library stock concentration: 22.4 mM,99.1 ± 1.3%
CNC(=N)NCCC[C@H](N)C(=O)O [NG-Monomethyl-L-arginine acetate],percent Bodipy-positive cells,[1],27.9 ± 5.2%
CNC(=N)NCCC[C@H](N)C(=O)O,percent Bodipy-positive cells,[1],22.94 ± 0.12%
NC(=O)c1cccc(N)c1 [3-Aminobenzamide],percent Bodipy-positive cells,[3],8.24 ± 3.8%
same,percent Bodipy-positive cells,[1],7.09% and 5.71%
NC(=O)c1cccc(N)c1 [3-aminobenzamide (3-ABA)],percent Bodipy-positive cells,library stock concentration: 36.7 mM,9.24 ± 3.8%
NC(=O)c1cccc(N)c1 [3-aminobenzamide],percent Bodipy-positive cells,[1],45.1 ± 5%
CCCCCCCCCCCC(=O)NC[C@]1(C)CCC[C@]2(C)c3ccc(C(C)C)cc3CCC12 (stereo partly specified) [Lauric Acid Leelamide],percent Bodipy-positive cells,[2],11.6 ± 1.1%
Cc1ccc(-n2nc(C(C)(C)C)cc2NC(=O)Nc2ccc(OCCN3CCOCC3)c3ccccc23)cc1,percent Bodipy-positive cells,[4],15.4 ± 1.6%
same,percent Bodipy-positive cells,[5],21.4 ± 13%
same,percent Bodipy-positive cells,[6],18.5 ± 0.67%
same,percent Bodipy-positive cells,[1],20.3 ± 7.2%
Cc1ccc(-n2nc(C(C)(C)C)cc2NC(=O)Nc2ccc(OCCN3CCOCC3)c3ccccc23)cc1 [BIRB 796 (Doramapimod)],percent Bodipy-positive cells,[3],10.1 ± 0.9%
same,percent Bodipy-positive cells,[1],18.9 ± 5.6%
C=CCSCC1Nc2cc(Cl)c(S(N)(=O)=O)cc2S(=O)(=O)N1 (stereo unspecified) [Althiazide],percent Bodipy-positive cells,,10.1 ± 1.4%
same,percent Bodipy-positive cells,library stock concentration: 5.2 mM,18.6 ± 6.5%
same,percent Bodipy-positive cells,[1],24.5 ± 3.8%
CCCCCCCCCCCC[N+](C)(C)CCOc1ccccc1 [Domiphen Bromide],percent Bodipy-positive cells,[3],41.7 ± 1.7%
same,percent Bodipy-positive cells,[1],100%
CC(=O)N(CC(O)CN(C(C)=O)c1c(I)c(C(=O)NCC(O)CO)c(I)c(C(=O)NCC(O)CO)c1I)c1c(I)c(C(=O)NCC(O)CO)c(I)c(C(=O)NCC(O)CO)c1I (stereo unspecified) [Iodixanol],percent Bodipy-positive cells,,10.2 ± 2.8%
CCCCC[C@H](O)/C=C/[C@H]1OC(O)C[C@H](O)[C@@H]1CCCCCCC(=O)O (stereo partly specified) [Thromboxane B1],percent Bodipy-positive cells,[2],17.9 ± 0.35%
O=C(Nc1ccc(I)cc1)NC1CCCCC1,percent Bodipy-positive cells,[1],97.9 ± 2%
"CC[C@H](CO)Nc1nc(NCc2ccc(-c3ccccn3)cc2)c2ncn(C(C)C)c2n1 [CR8, (R)-Isomer]",percent Bodipy-positive cells,[3],26.9 ± 3.4%
CC(C(=O)O)c1ccc(C(=O)c2ccccc2)s1 (stereo unspecified) [Tiaprofenic acid],percent Bodipy-positive cells,,22.3 ± 10%
CCCCC[C@H](O)/C=C/C=C\CCCCCCCC(=O)O,percent Bodipy-positive cells,library stock concentration: 100 uM,8.38 ± 7%
NC(=O)NS(=O)(=O)c1ccc(N)cc1,percent Bodipy-positive cells,[1],24.2 ± 3.1%
O=C(O)CCC/C=C\CC1C(O)CC(O)C1/C=C/C(O)COc1cccc(Cl)c1 (stereo unspecified),percent Bodipy-positive cells,[1],6.33 ± 1.5%
O=C(O)CCC/C=C\CC1C(O)CC(O)C1/C=C/C(O)COc1cccc(Cl)c1 (stereo unspecified) [Cloprostenol],percent Bodipy-positive cells,[2],17 ± 7.2%
CN(C)CC/C=C1/c2ccccc2COc2ccc(CC(=O)O)cc21 [Olopatadine],percent Bodipy-positive cells,library stock concentration: 5.9 mM,9.17 ± 1.8%
CN(C)CC/C=C1/c2ccccc2COc2ccc(CC(=O)O)cc21 [Olopatadine HCl],percent Bodipy-positive cells,[3],11.2 ± 4.4%
same,percent Bodipy-positive cells,[1],12.4 ± 4.4%
CN(C)CC/C=C1/c2ccccc2COc2ccc(CC(=O)O)cc21,percent Bodipy-positive cells,[1],9.62 ± 5.2%
COc1cc(/C=C/C(=O)N2CCCCCCC2)cc(OC)c1OC,percent Bodipy-positive cells,[1],30.6 ± 7.2%
Clc1ccc(N2CCN(Cc3cc4ccccn4n3)CC2)cc1,percent Bodipy-positive cells,[1],33.5 ± 8.5%
c1nc(CC2CCNCC2)c[nH]1 [Immepip dihydrobromide],percent Bodipy-positive cells,[1],9.32 ± 1%
O=C(O)C1=CCCN(CCON=C(c2ccccc2)c2ccccc2)C1,percent Bodipy-positive cells,[1],4.9 ± 0.95%
O=C(O)C1=CCCN(CCON=C(c2ccccc2)c2ccccc2)C1 [NO-711 hydrochloride],percent Bodipy-positive cells,[1],41.6 ± 5.3%
CC(C)C(=O)Oc1ccc(CO)cc1[C@H](CCN(C(C)C)C(C)C)c1ccccc1.O=C(O)C=CC(=O)O [Fesoterodine Fumarate],percent Bodipy-positive cells,[1],88.7 ± 8.6%
c1ccc(CN(CC2=NCCN2)c2ccccc2)cc1 [Antazoline phosphate],percent Bodipy-positive cells,[1],39.9 ± 6.7%
c1ccc(CN(CC2=NCCN2)c2ccccc2)cc1 [Antazoline HCl],percent Bodipy-positive cells,[3],21.5 ± 11%
same,percent Bodipy-positive cells,[1],65.39 ± 0.24%
c1ccc(CN(CC2=NCCN2)c2ccccc2)cc1 [Antazoline hydrochloride],percent Bodipy-positive cells,,59.6 ± 7.1%
same,percent Bodipy-positive cells,[1],24.2 ± 8.2%
Nc1ncnc2n[nH]c(Nc3ccc(F)cc3)c12,percent Bodipy-positive cells,[2],15.8 ± 7.4%
same,percent Bodipy-positive cells,[3],21.2 ± 3%
same,percent Bodipy-positive cells,[1],22.8% and 13.3% and 6.06%
CC[C@H](C)C[C@H](C)CCCCCCCCC(=O)N[C@H]1C[C@@H](O)[C@@H](NCCN)NC(=O)[C@@H]2[C@@H](O)CCN2C(=O)[C@H]([C@H](O)CCN)NC(=O)[C@H]([C@H](O)[C@@H](O)c2ccc(O)cc2)NC(=O)[C@@H]2C[C@@H](O)CN2C(=O)[C@H]([C@@H](C)O)NC1=O [Caspofungin Acetate],percent Bodipy-positive cells,[3],8.79 ± 3.1%
same,percent Bodipy-positive cells,[1],40 ± 25%
CCn1cc(NC(=S)Nc2cc(Cl)ccc2OC)c(C(N)=O)n1,percent Bodipy-positive cells,[3],30.6 ± 6.4%
same,percent Bodipy-positive cells,[1],46 ± 2.5%
CN(C)Cc1ccc(S(=O)(=O)n2ccc(/C=C/C(=O)NO)c2)cc1 [Resminostat],percent Bodipy-positive cells,[3],54.6 ± 8.2%
same,percent Bodipy-positive cells,[1],88.4 ± 7.2%
COc1c(N2CCNC(C)C2)c(F)cc2c(=O)c(C(=O)O)cn(C3CC3)c12 (stereo unspecified) [Gatifloxacin],percent Bodipy-positive cells,[7],8.26% and 15.8%
same,percent Bodipy-positive cells,[1],37% and 20.5%
O=C(c1ccccc1)c1ccc2n1CCC2C(=O)O (stereo unspecified) [Ketorolac tris salt],percent Bodipy-positive cells,[1],34.5 ± 22%
O=C(c1ccccc1)c1ccc2n1CCC2C(=O)O (stereo unspecified) [Ketorolac (tromethamine salt)],percent Bodipy-positive cells,[2],11.9 ± 7.3%
O=C(c1ccccc1)c1ccc2n1CCC2C(=O)O (stereo unspecified),percent Bodipy-positive cells,[1],9.43 ± 2%
O=C(c1ccccc1)c1ccc2n1CCC2C(=O)O (stereo unspecified) [Ketorolac],percent Bodipy-positive cells,[3],9.04 ± 3.1%
same,percent Bodipy-positive cells,[1],13 ± 0.17%
O=C(c1ccccc1)c1ccc2n1CCC2C(=O)O (stereo unspecified) [Ketorolac tromethamine],percent Bodipy-positive cells,,9.55 ± 1%
same,percent Bodipy-positive cells,[7],10.4 ± 4%
same,percent Bodipy-positive cells,[1],44.2 ± 2.3%
CCOC(=O)[C@@](C)(N)Cc1ccc(O)c(O)c1 [Methyldopate hydrochloride],percent Bodipy-positive cells,,8.79 ± 2.3%
same,percent Bodipy-positive cells,library stock concentration: 7.3 mM,15.5 ± 7%
CCN(CC)CCCC(C)Nc1nc(C)cc(Nc2ccc3nc(C)cc(N)c3c2)n1 (stereo unspecified),percent Bodipy-positive cells,[3],28.9 ± 1.4%
OCc1ccccc1O [Salicyl alcohol],percent Bodipy-positive cells,[1],10.1 ± 1.7%
same,percent Bodipy-positive cells,library stock concentration: 16.1 mM,12 ± 3.2%
CNC(=O)[C@H]1O[C@@H](n2cnc3c(NCc4cccc(I)c4)nc(Cl)nc32)[C@H](O)[C@@H]1O,percent Bodipy-positive cells,[1],10.7 ± 2%
CNC(=O)[C@H]1O[C@@H](n2cnc3c(NCc4cccc(I)c4)nc(Cl)nc32)[C@H](O)[C@@H]1O [Chloro-IB-MECA],percent Bodipy-positive cells,[1],44.6 ± 1.8%
O=C(C[S+]([O-])Cc1ccco1)NC/C=C\COc1cc(CN2CCCCC2)ccn1 (stereo unspecified) [Lafutidine],percent Bodipy-positive cells,[3],8.81 ± 6.1%
same,percent Bodipy-positive cells,[1],11.3 ± 0.74%
Fc1ccc([C@@H]2CCNC[C@H]2COc2ccc3c(c2)OCO3)cc1 [Paroxetine HCl],percent Bodipy-positive cells,library stock concentration: 6.1 mM,69.1 ± 2.6%
C#CCC(Cc1cnc2nc(N)nc(N)c2n1)c1ccc(C(=O)N[C@@H](CCC(=O)O)C(=O)O)cc1 (stereo partly specified) [Pralatrexate],percent Bodipy-positive cells,[3],13.9 ± 5.8%
same,percent Bodipy-positive cells,[1],30.8 ± 9.4%
O=[N+]([O-])c1cccc2c[nH]nc12,percent Bodipy-positive cells,[1],11.3 ± 8.2%
CC(C)(C)NCC(O)COc1cccc2[nH]c(=O)[nH]c12 (stereo unspecified),percent Bodipy-positive cells,[1],37.5 ± 3.9%
Cl.Fc1ccc([C@@H]2CCNC[C@H]2COc2ccc3c(c2)OCO3)cc1 [Paroxetine Hydrochloride],percent Bodipy-positive cells,,79.1 ± 3.3%
"O=C(O)c1ccc2c(c1)CCCC2 [5,6,7,8-tetrahydro-2-Naphthoic Acid]",percent Bodipy-positive cells,[2],9.06 ± 3.2%
CN(CC[C@@H](Oc1ccc(-c2ccccc2)cc1)c1ccc(F)cc1)CC(=O)O [ALX 5407 hydrochloride],percent Bodipy-positive cells,[1],8.88 ± 4.3%
CN(C)CC(c1ccc(O)cc1)C1(O)CCCCC1 (stereo unspecified) [Desvenlafaxine Succinate],percent Bodipy-positive cells,[3],7.98 ± 2.7%
same,percent Bodipy-positive cells,[1],40.3 ± 16%
CN(C)CC(c1ccc(O)cc1)C1(O)CCCCC1 (stereo unspecified) [Desvenlafaxine],percent Bodipy-positive cells,[3],12.2 ± 1.5%
same,percent Bodipy-positive cells,[1],33.4 ± 11%
CN(C)CC(c1ccc(O)cc1)C1(O)CCCCC1 (stereo unspecified),percent Bodipy-positive cells,[1],35.6 ± 10%
NC(=O)[C@@H]1CCCN1C(=O)[C@H](Cc1c[nH]cn1)NC(=O)[C@@H]1CCC(=O)N1,percent Bodipy-positive cells,[1],30.4 ± 15%
O=C(NOCC(O)CO)c1cc(Br)c(F)c(F)c1Nc1ccc(I)cc1F (stereo unspecified),percent Bodipy-positive cells,[3],5.54 ± 1.9%
same,percent Bodipy-positive cells,[1],15.6 ± 5.7%
"N#CCCc1ccc2c(c1)-c1[nH]c3ccc([N+](=O)[O-])cc3c1CC(=O)N2 [Alsterpaullone, 2-Cyanoethyl]",percent Bodipy-positive cells,[3],40.9 ± 1.8%
O=C(Nc1ccccc1Br)N[C@@H]1CCN(c2ccc(C(F)(F)F)cn2)C1,percent Bodipy-positive cells,[3],10.6 ± 2%
same,percent Bodipy-positive cells,[1],22.5 ± 2.2%
